Paper PMC3282788
Where a chain is given by its changes, count along the chain named. Names may count otherwise. No constants are given. Whether binding was seen depends on the method and setting. In cells and extracts the contact can be indirect. Some results given as binding are weak or reduced against the parent protein; the word gives no strength. Sequences can lack the tags named with a protein.

B1: 3XHA-Vangl2 (protein, UniProt Q91ZD4 1-521)
chain: MDTESQYSGYSYKSGHSRSSRKHRDRRDRHRSKSRDGSRGDKSVTIQAPGEPLLDNESTRGDERDDNWGETTTVVTGTSEHSISHDDLTRIAKDMEDSVPLDCSRHLGVAAGAILALLSFLTPLAFLLLPPLLWREELEPCGTACEGLFISVAFKLLILLLGSWALFFRRPKASLPRVFVLRALLMVLVFLLVISYWLFYGVRILDARERSYQGVVQFAVSLVDALLFVHYLAVVLLELRQLQPQFTLKVVRSTDGASRFYNVGHLSIQRVAVWILEKYYHDFPVYNPALLNLPKSVLAKKVSGFKVYSLGEENSTNNSTGQSRAVIAAAARRRDNSHNEYYYEEAEHERRVRKRRARLVVAVEEAFTHIKRLQEEEQKNPREVMDPREAAQAIFASMARAMQKYLRTTKQQPYHTMESILQHLEFCITHDMTPKAFLERYLAAGPTIQYHKERWLAKQWTLVSEEPVTNGLKDGIVFLLKRQDFSLVVSTKKVPFFKLSEEFVDPKSHKFVMRLQSETSV
B2: 3XHA-Vangl2^S464N (protein, UniProt Q91ZD4 1-521)
chain: B1 chain with S464N

Tests used:
[1] = target: T1, EGFP-Vangl2 (mouse) (UniProt Q91ZD4); assay: co-IP; anti-GFP antibody on protein G beads with lysates of co-electroporated MDCK cells (25 mM Tris pH 7.4, 1% Triton X-100, 50 mM NaCl, protease inhibitors); absorbed at 4°C; HA blot of the precipitate
T1 sequence: B1 chain

[2] = target: T2, EGFP-Vangl1 (mouse) (UniProt Q80Z96); assay: as above
T2 sequence: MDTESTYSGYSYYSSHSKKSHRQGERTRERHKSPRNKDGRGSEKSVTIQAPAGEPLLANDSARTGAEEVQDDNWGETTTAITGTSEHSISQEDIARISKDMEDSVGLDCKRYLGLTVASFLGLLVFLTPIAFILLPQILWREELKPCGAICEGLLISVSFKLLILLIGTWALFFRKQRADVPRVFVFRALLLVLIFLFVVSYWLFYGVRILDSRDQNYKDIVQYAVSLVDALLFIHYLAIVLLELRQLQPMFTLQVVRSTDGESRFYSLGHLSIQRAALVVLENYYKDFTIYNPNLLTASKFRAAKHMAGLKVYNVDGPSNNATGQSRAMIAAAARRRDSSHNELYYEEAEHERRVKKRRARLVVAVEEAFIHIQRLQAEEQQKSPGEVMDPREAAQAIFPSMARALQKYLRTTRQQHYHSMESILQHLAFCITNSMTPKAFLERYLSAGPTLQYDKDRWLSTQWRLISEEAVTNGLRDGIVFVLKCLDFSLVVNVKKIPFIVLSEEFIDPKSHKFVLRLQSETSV

Binder | binding [1] | binding [2]
B1 | binds | binds
B2 | binds | binds
